Results are given in words; binding and its absence hold for the method and conditions named. Some results given as binding are weak or reduced against the parent protein; the word gives no strength.

The chains behind the UniProt entries cited, without tags or fusion partners.
UniProt P27540: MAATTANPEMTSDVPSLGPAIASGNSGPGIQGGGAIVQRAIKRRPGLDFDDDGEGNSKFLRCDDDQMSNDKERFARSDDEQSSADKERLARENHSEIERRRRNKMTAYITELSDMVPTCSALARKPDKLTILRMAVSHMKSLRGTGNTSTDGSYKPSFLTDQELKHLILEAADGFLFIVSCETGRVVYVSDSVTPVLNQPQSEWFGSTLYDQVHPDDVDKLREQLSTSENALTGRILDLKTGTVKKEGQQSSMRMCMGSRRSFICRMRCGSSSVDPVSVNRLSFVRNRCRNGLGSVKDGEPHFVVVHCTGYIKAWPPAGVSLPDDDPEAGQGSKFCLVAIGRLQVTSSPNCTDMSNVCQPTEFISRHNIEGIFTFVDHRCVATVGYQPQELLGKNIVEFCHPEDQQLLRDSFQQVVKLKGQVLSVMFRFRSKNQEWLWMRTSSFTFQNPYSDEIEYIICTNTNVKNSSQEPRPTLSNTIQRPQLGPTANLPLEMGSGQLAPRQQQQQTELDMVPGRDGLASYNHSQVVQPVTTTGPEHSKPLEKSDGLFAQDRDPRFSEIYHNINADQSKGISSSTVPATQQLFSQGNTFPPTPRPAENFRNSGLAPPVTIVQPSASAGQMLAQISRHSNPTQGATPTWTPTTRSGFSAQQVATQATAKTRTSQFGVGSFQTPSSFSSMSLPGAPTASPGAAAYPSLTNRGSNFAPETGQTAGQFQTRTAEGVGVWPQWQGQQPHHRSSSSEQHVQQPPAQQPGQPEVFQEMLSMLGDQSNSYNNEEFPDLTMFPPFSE
UniProt P53762: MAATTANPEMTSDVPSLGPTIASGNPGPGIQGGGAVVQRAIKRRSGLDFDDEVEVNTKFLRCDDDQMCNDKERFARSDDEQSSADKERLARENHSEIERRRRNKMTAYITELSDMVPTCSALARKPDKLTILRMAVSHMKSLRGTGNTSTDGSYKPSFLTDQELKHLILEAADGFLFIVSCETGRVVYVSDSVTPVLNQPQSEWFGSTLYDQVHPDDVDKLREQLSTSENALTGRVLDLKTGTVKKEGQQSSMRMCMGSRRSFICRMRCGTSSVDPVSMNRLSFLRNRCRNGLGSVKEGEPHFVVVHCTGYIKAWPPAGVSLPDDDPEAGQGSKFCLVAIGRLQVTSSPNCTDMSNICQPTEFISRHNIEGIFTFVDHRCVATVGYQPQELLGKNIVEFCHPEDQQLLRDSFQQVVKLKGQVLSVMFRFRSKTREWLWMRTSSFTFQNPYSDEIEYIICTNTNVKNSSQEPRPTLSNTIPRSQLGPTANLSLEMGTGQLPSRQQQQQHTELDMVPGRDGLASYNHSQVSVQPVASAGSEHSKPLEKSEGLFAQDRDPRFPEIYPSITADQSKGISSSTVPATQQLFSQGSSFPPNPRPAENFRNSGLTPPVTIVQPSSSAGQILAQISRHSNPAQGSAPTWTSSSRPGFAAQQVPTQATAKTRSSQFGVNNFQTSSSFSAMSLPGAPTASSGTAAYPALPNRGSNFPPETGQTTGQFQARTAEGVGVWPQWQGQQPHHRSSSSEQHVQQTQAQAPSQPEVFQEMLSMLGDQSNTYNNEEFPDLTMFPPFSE
UniProt P35869: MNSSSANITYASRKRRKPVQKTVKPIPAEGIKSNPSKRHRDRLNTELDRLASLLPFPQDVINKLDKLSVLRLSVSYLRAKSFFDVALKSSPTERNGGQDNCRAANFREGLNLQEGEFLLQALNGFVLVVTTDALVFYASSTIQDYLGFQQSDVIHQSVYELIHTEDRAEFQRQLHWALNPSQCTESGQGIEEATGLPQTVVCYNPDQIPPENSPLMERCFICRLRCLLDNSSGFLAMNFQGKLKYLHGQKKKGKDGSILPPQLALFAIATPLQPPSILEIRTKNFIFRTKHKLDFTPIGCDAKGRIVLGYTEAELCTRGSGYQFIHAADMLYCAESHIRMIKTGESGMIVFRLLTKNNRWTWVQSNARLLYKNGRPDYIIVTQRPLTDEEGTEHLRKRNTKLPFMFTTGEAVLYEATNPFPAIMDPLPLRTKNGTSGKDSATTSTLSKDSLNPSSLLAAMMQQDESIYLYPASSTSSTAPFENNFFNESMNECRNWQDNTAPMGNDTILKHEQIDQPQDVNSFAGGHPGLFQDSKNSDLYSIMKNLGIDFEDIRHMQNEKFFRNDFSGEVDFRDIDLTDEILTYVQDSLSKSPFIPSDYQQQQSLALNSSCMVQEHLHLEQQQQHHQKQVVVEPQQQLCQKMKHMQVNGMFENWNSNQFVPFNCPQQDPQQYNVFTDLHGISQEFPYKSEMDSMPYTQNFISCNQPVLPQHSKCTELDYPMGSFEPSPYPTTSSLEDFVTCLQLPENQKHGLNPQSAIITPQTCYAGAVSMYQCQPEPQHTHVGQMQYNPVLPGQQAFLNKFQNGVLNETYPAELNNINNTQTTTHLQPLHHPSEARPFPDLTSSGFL
UniProt P30561: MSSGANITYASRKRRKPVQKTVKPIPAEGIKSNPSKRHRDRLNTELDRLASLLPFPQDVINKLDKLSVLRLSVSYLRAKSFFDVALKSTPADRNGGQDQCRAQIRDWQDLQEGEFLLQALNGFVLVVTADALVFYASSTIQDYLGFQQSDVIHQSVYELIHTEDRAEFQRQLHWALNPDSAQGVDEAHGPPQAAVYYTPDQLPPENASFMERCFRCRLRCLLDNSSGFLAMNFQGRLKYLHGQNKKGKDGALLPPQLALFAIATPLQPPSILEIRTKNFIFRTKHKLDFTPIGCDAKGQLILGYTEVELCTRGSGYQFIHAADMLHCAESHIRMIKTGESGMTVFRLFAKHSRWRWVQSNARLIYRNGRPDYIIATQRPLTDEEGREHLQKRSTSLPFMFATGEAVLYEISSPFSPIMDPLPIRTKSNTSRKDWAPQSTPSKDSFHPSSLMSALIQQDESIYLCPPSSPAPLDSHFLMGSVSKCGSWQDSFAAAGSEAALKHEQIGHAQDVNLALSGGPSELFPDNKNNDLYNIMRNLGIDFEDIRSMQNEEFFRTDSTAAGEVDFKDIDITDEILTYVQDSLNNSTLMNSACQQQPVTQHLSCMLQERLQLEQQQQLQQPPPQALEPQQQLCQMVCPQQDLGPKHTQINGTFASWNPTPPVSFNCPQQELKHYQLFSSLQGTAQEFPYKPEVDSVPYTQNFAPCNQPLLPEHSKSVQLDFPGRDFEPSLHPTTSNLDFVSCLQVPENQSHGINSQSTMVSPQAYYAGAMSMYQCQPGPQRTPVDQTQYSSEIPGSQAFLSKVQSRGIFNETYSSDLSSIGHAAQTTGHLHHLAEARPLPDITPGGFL

Data on two substances can be found in paper PMC7312509.

The target in assay [1] is human aryl hydrocarbon nuclear translocator (hARNT) (human) (UniProt P27540). Briefly: native gel or EMSA; in vitro synthesized AhR and ARNT translation mixtures and MEDGK buffer (25 mM MOPS pH 7.5, 1 mM EDTA, 1 mM dithiothreitol, 10% glycerol, 150 mM KCl) mixed 1:1:8, incubated with TCDD (20 nM), 1,2-NQ or 1,4-NQ (0.5 nM-1 uM) for 2 h at room temperature, then mixed with [32P]-labeled DRE3 oligonucleotide; inducible AhR:ARNT:DRE complex resolved by gel retardation; complex corrected for DMSO control.

The target in assay [2] is mouse aryl hydrocarbon nuclear translocator (mARNT) (mouse) (UniProt P53762). Described as above.

Turning to “human aryl hydrocarbon receptor (hAhR) (from UniProt P35869 1-848)”, in assay [1], the binding result is on record as “binds”. Turning to “mouse aryl hydrocarbon receptor (mAhR) (from UniProt P30561 1-848)”, in assay [2], the binding entry is reported as “binds”.
